{"source": "patent US20110158901", "system": "Ramos cell surface (control cells, no defined protein) (Homo sapiens)", "test": "flow cytometry", "conditions": "5'-carboxyl, conjugated to FITC-chitosan nanoparticle amines; protein on the cell surface; label: FITC (on nanoparticle); single-stranded DNA", "note": "For at least one entry, the source does not settle the construct or the ends of the probe. Where cells or extracts were used, other partners may take part. Negatives hold for the conditions tested.", "data": [{"sequence": "ATCTAACTGCTGCGCCGCCGGGAAAATACTGTACGGTTAGA [sgc8c]", "values": [{"measurement": "binding result", "value": "no binding"}]}]}
